Assay results as given in US20220062173A1, “LIQUID COMPOSITIONS” (JOHNSON & JOHNSON CONSUMER INC., priority 2019, published 2022).
Some entries share one result that the patent states for a list of compounds.

Each compound was assayed on oral cavity (assay: Taste-test evaluation of cooling sensates in base cough-cold liquid). Details: duration of cooling.
Format: in vivo
Experimental: Various polymeric additives were combined into a base cough-cold liquid formula to determine interaction, and included various grades of Avicel®, CMC, HPMC among others. A synergistic effect was observed when Poloxamer was also included in the formulation containing above mentioned rheology modifier and a cooling flavor. A cooling sensation in the back of the throat could be felt, and the sensation lasted longer (approximately 5-10 min or even longer in some instances). […] The presence of just the viscosity modifiers and no Poloxamer, the same flavor did provide targeted cooling, but the extent and duration was less.
Cooling sensate samples were requested from various flavor suppliers and were included into the formulation at a level recommended by the manufacturer and evaluated by various individuals in terms of cooling efficiency/intensity, area within the oral cavity where cooling could be felt, cooling onset time, and duration of cooling. It was interesting to see that all the sensate provided different degree of cooling and the area within the oral cavity where cooling could be felt was different.
Mixing Procedure: The following procedure was used to mix the materials in Table 3. The formulation was prepared by adding purified water to a suitable vessel. The Avicel RC591 was then added while mixing using a high shear mixer until dissolved, followed by addition of propylene glycol while mixing using a propeller mixer at about 500-1000 RPM. The rest of the ingredients were added and mixed at approximately 50-100 RPM for at least 30 minutes. After complete dissolution, the solution was heated using a water bath to a temperature between […] for 15 minutes while continuously stirring. The solution was cooled to room temperature before adding propylene glycol while mixing. The rest of the ingredients were added and mixed for at least 30 minutes.

First: CC(C)[C@@H]1CC[C@@H](C)C[C@H]1O [Menthol, (1R,2S,5R)-2-isopropyl-5-methylcyclohexanol, reference compound]
Second: CCNC(=O)[C@@H]1C[C@H](C)CC[C@H]1C(C)C [WS-3, N-ethyl 2-isopropyl-5-methylcyclohexanecarboxamide]
The Duration of the first is higher: 5 to 6 min for the first, 4 to 5 min for the second.

`COc1ccc(NC(=O)[C@@H]2C[C@H](C)CC[C@H]2C(C)C)cc1` [WS 12, (1R,2S,5R)-N-(4-methoxyphenyl)-5-methyl-2-(1-methylethyl) cyclohexanecarboxamide] and `CC(O)C(=O)O[C@@H]1C[C@H](C)CC[C@H]1C(C)C` (stereo partly drawn) [Symcool NAT, Menthyl Lactate] cannot be ordered by Duration: 5 to 7 min for the first, 5 to 6 min for the second.

With `CNC(=O)C(C)(C(C)C)C(C)C` [WS 23, 2-isopropyl-N,2,3-trimethylbutyramide] the Duration was 3 to 4 min.

Same assay, conditions: values in min

With `COc1ccc(NC(=O)[C@@H]2C[C@H](C)CC[C@H]2C(C)C)cc1` [WS 12, (1R,2S,5R)-N-(4-methoxyphenyl)-5-methyl-2-(1-methylethyl) cyclohexanecarboxamide] the Onset time was 1 to 2 min.
